Assay results taken from PubChem BioAssay AID540276 (National Center for Advancing Translational Sciences (NCATS), 2011).
The whole screen tested about 300,000 compounds, of which about 5,400 (1.8%) were called active. This list was built around the results that the source calls inconclusive (neither active nor inactive); the mix of calls is not that of the screen. Calls come from the whole dose curve; tested in HEK293 cells. Potencies of inconclusive entries are doubtful fits and often do not repeat.

Experiment: qHTS for inhibitors of binding or entry into cells for Marburg Virus
Details: Marburg virus pseudotyped entry inhibition, cell reporter; activity change, negative = inhibition: at 37.8 µM (top of the series) unless noted
% is set by controls: 0 for no effect and ±100 for the full control effect; potency is the fitted concentration of half-maximal effect.

SMILES | Potency | activity change, negative = inhibition
O=[N+]([O-])c1ccc(NC2CCCC2)c2ccncc12 | inconclusive: 20 µM [inhibitor, partial curve, poor fit] | –
CCOC(=O)/C=C/S(=O)(=O)c1ccc(NC(C)=O)cc1 | – | inactive: -27.6%
O=C(CC1(O)C(=O)c2ccccc2C1=O)c1ccccc1 | inconclusive: 5.62 µM [activator, single point] | –
COCCN1Cc2cccc(C(=O)Nc3cccc(-c4nc5ccccc5[nH]4)c3)c2C1=O | inconclusive: 35.5 µM [inhibitor, single point] | –
Cc1ccc(OCCNC(=O)C2CC(=O)N(Cc3ccccc3)C2)cc1 (stereo not drawn) | – | inactive: 1.78%
O=C(Nc1ccc(N2CCCC2)c(Cl)c1)c1cccs1 | inconclusive: 7.08 µM [inhibitor, partial curve, poor fit] | –
CNCCOc1ccccc1C(C)(C)C | inconclusive: 29.1 µM [inhibitor, single point] | –
Cc1ccccc1Nc1nc(N)nc(CSc2nc3ccccc3c(=O)n2C)n1 | inconclusive: 5.62 µM [inhibitor, partial curve, poor fit] | –
Cc1ccccc1CN(C)CC(=O)Nc1ccccc1-c1ccccc1 | inconclusive: 20 µM [inhibitor, partial curve, poor fit] | –
O=C(N/N=C/c1ccc([N+](=O)[O-])s1)c1ccccc1Br | inconclusive: 20.6 µM [inhibitor, single point] | –
Cc1ccc(S(=O)(=O)N2CCN(C(=O)Cc3ccc4c(c3)OCCO4)CC2)cc1C | inconclusive: 35.5 µM [inhibitor, partial curve, poor fit] | –
Cc1ccc2c(CN(Cc3ccccc3)Cc3ccccc3)cc(=O)oc2c1 | inconclusive: 11.2 µM [inhibitor, single point] | –
CC(=NNc1nc2ccccc2s1)c1ccncn1 | inconclusive: 2.51 µM [inhibitor, full curve, poor fit] | –
Cc1cccc(NC(=S)N(Cc2cccs2)Cc2cc3cc(C)ccc3[nH]c2=O)c1 | inconclusive: 3.16 µM [inhibitor, single point] | –
COC(=O)c1cc(Cc2ccc(N)c(C(=O)OC)c2)ccc1N | inconclusive: 2.31 µM [inhibitor, full curve] | –
Cc1ncc(CO)c(/C=N/NC(=O)c2ccc(O)cc2)c1O | – | inactive: 27%
Nc1cc(Cl)c2nonc2c1[N+](=O)[O-] | inconclusive: 11.2 µM [inhibitor, partial curve, poor fit] | –
CCn1c(Cc2ccc(OC)cc2)nnc1SCC(=O)Nc1nc2ccccc2s1 | inactive | –
CCC(CO)n1c(SCc2cc(=O)oc3cc(C)ccc23)nc2ccccc2c1=O (stereo not drawn) | – | inactive: -2.8%
CN(Cc1ccccc1F)C(=O)c1ccc(NS(=O)(=O)c2ccc3[nH]c(=O)[nH]c3c2)cc1 | inconclusive: 2.82 µM [inhibitor, single point] | –
O=C(NCCCc1ccccc1)c1ccc([N+](=O)[O-])cc1Cl | inconclusive: 7.94 µM [activator, partial curve] | –
Cn1c(N)c(C(=O)CSc2nc(N)cc(=O)[nH]2)c(=O)n(C)c1=O | inconclusive: 4.61 µM [activator, full curve] | –
CCc1ccc(C2CC(=O)c3c([nH]c(C(=O)OCc4ccc(C)cc4)c3C)C2)cc1 (stereo not drawn) | inconclusive: 22.4 µM [inhibitor, single point] | –

SMILES | Potency | activity change, negative = inhibition
Cn1c(=O)n(C)c2cc(CNCCc3ccccc3F)ccc21 | – | inactive: 7.7% [at 46.1 µM]
CC(=O)N1CCc2ccc(NC(=O)c3c(-c4c(Cl)cccc4Cl)noc3C)cc21 | inconclusive: 0.316 µM [inhibitor, full curve, poor fit] | –
CCN(CC(=O)NCc1ccc(F)cc1)C(=O)C1CCN(S(=O)(=O)c2ccc(C(C)C)cc2)CC1 | – | inactive: -23.6%
Cc1ccc(-c2nnn(CC(=O)NC3CCN(Cc4ccccc4)CC3)n2)cc1 | inconclusive: 29.1 µM [inhibitor, single point] | –
CCCCNC(=S)Nc1ccc2nc3n(c(=O)c2c1)CCCCC3 | – | inactive: 23.7%
C=CCSc1n[nH]c(-c2ccc(OC)cc2)n1 | – | inactive: 1.2%
Cc1cc(C)c(S(=O)(=O)c2ccccc2C(C)C)c(=O)[nH]1 | inconclusive: 0.708 µM [inhibitor, single point] | –
COc1cccc(-c2nc(N3CCCCC3)c3ccccc3n2)c1O | inconclusive: 3.98 µM [inhibitor, full curve, poor fit] | –
Cc1nn(C(C)(C)C)c(OC(=O)c2ccc(Br)o2)c1Sc1ccccc1 | inconclusive: 16.4 µM [inhibitor, single point] | –
Cc1cc(C)c(C)c(S(=O)(=O)N[C@@H](C)C(=O)OCc2cc(=O)n3cc(Br)ccc3n2)c1C | – | inactive: -2.85% [at 46.1 µM]
Oc1ccc(O)c(-c2cnns2)c1 | inconclusive: 0.282 µM [inhibitor, full curve, poor fit] | –
CCN(CC)CCCNC(=O)CN1C(=O)CSc2ccc(S(=O)(=O)N3CCOCC3)cc21 | inconclusive: 4.61 µM [activator, single point] | –
S=C(NC1CCCCC1)N1CCOCCOCCN(C(=S)NC2CCCCC2)CCOCCOCC1 | inconclusive: 14.1 µM [inhibitor, partial curve, poor fit] | –
CO[C@@]12[C@@H]3N[C@@H]3CN1C1=C(C(=O)C(N)=C(C)C1=O)[C@@H]2COC(N)=O | inconclusive: 0.1 µM [inhibitor, full curve, poor fit] | –
Cn1cc(C(=O)CCl)c2ccccc21 | active: 16.4 µM | –
Cc1nc(-c2ccc(F)cc2)c(CC(=O)Nc2ccc(C)c(S(=O)(=O)N3CCOCC3)c2)s1 | active: 5.01 µM | –
Cc1ccc(NC(=O)COC(=O)C2CCC2)cc1S(=O)(=O)N1CCCCC1 | – | inactive: 1.19%
Cc1cc(N2CCN(c3cccc(C(F)(F)F)c3)CC2)n2nc(-c3ccccc3C)nc2n1 | – | inactive: 3.4% [at 46.1 µM]
COC(=O)Nc1c(-c2ccccc2)nc2ccccn12 | – | inactive: 12.1%
C/C(=N\O)C(=O)OC1CC(C)CCC1C(C)C (stereo not drawn) | inconclusive: 23.1 µM [inhibitor, partial curve, poor fit] | –
COc1ccc(-c2nnc(-c3cc(OC)c(OC)c(OC)c3)o2)cc1OC | inconclusive: 14.1 µM [inhibitor, partial curve, poor fit] | –
CCCCC(=O)NCCc1cc2ccc(OC)cc2[nH]c1=O | inconclusive: 35.5 µM [activator, single point] | –
Nc1nnc(Sc2ncccc2[N+](=O)[O-])s1 | inconclusive: 5.62 µM [inhibitor, single point] | –

Not a retest: an excerpt of the list.
SMILES | Potency | activity change, negative = inhibition
Cc1nn(C(C)(C)C)c(OC(=O)c2ccc(Br)o2)c1Sc1ccccc1 | inconclusive: 16.4 µM [inhibitor, single point] | –
Cc1cc(C)c(C)c(S(=O)(=O)N[C@@H](C)C(=O)OCc2cc(=O)n3cc(Br)ccc3n2)c1C | – | inactive: -2.85% [at 46.1 µM]
Oc1ccc(O)c(-c2cnns2)c1 | inconclusive: 0.282 µM [inhibitor, full curve, poor fit] | –
CCN(CC)CCCNC(=O)CN1C(=O)CSc2ccc(S(=O)(=O)N3CCOCC3)cc21 | inconclusive: 4.61 µM [activator, single point] | –
S=C(NC1CCCCC1)N1CCOCCOCCN(C(=S)NC2CCCCC2)CCOCCOCC1 | inconclusive: 14.1 µM [inhibitor, partial curve, poor fit] | –
CO[C@@]12[C@@H]3N[C@@H]3CN1C1=C(C(=O)C(N)=C(C)C1=O)[C@@H]2COC(N)=O | inconclusive: 0.1 µM [inhibitor, full curve, poor fit] | –
Cn1cc(C(=O)CCl)c2ccccc21 | active: 16.4 µM | –
Cc1nc(-c2ccc(F)cc2)c(CC(=O)Nc2ccc(C)c(S(=O)(=O)N3CCOCC3)c2)s1 | active: 5.01 µM | –
Cc1ccc(NC(=O)COC(=O)C2CCC2)cc1S(=O)(=O)N1CCCCC1 | – | inactive: 1.19%
Cc1cc(N2CCN(c3cccc(C(F)(F)F)c3)CC2)n2nc(-c3ccccc3C)nc2n1 | – | inactive: 3.4% [at 46.1 µM]
COC(=O)Nc1c(-c2ccccc2)nc2ccccn12 | – | inactive: 12.1%
C/C(=N\O)C(=O)OC1CC(C)CCC1C(C)C (stereo not drawn) | inconclusive: 23.1 µM [inhibitor, partial curve, poor fit] | –
COc1ccc(-c2nnc(-c3cc(OC)c(OC)c(OC)c3)o2)cc1OC | inconclusive: 14.1 µM [inhibitor, partial curve, poor fit] | –
CCCCC(=O)NCCc1cc2ccc(OC)cc2[nH]c1=O | inconclusive: 35.5 µM [activator, single point] | –

Following part.

SMILES | Potency | activity change, negative = inhibition
c1ccc(C2CC(c3ccccc3)C(c3ccccc3)N2)cc1 (stereo not drawn) | inconclusive: 1 µM [inhibitor, partial curve, poor fit] | –
Cc1cc(N(CCCl)CCCl)ccc1/C=N/NC(=O)c1ccco1 | inconclusive: 20 µM [inhibitor, partial curve, poor fit] | –
O=C1c2ccccc2NC(c2ccc3c(c2)OCCO3)N1c1ccc2c(c1)OCCO2 (stereo not drawn) | active: 8.91 µM | –
Cc1cc(C)c(OCCN(C)Cc2ccccc2)c(Br)c1 | inconclusive: 10 µM [inhibitor, single point] | –
CSc1ccc(/C=C2\CCn3c2nc2cc(C(=O)O)ccc2c3=O)cc1 | inconclusive: 35.5 µM [inhibitor, single point] | –
Cc1ccc(OCC(=O)N(Cc2ccc(Cl)cc2)CC2CCCO2)cc1C (stereo not drawn) | inconclusive: 3.98 µM [inhibitor, single point] | –
COc1ccc(/C=C/C(=O)c2c(O)cc(C)oc2=O)c(OC)c1 | – | inactive: -7.28%
O=C(/C=C/c1ccccc1)NC(NC(=S)Nc1cccc(O)c1)C(Cl)(Cl)Cl (stereo not drawn) | inconclusive: 35.5 µM [inhibitor, single point] | –
O=C(CC1C(=O)NCCN1Cc1ccc(Cl)c(F)c1)NC1CCC1 (stereo not drawn) | – | inactive: 0.817% [at 46.1 µM]
Cc1ccc(C2(c3noc(CN(C)CCO)n3)CCCC2)cc1 | – | inactive: -16% [at 46.1 µM]
Cc1occc1C(=O)NC1CCCN(Cc2ccc(Cl)cc2)C1 (stereo not drawn) | inconclusive: 35.5 µM [inhibitor, partial curve, poor fit] | –
O=P(NC1CCCCC1)(c1ccccc1)c1ccccc1 | inconclusive: 11.2 µM [inhibitor, partial curve, poor fit] | –
O=C(NCC(=O)N(c1ccc2c(c1)OCO2)C(C(=O)NC1CCCC1)c1ccncc1)c1ccco1 (stereo not drawn) | – | inactive: 14.4%
Cc1nc(N2CCN(C(=O)c3ccco3)CC2)c2oc3ccccc3c2n1 | inconclusive: 12.6 µM [inhibitor, partial curve] | –
CC1SC(C)C(=O)N(CC(=O)Nc2ccc3c(c2)OCO3)C1=O (stereo not drawn) | inconclusive: 20 µM [inhibitor, partial curve, poor fit] | –
COc1cc(OC)c(OC)cc1CN(C)C(c1ccccc1)c1nnnn1-c1ccccc1C (stereo not drawn) | inconclusive: 12.6 µM [inhibitor, partial curve, poor fit] | –
CC=COC(=O)N[C@@H](c1ccccc1)[C@]1(C(C)=O)CCOC1=O | – | inactive: 6.79% [at 14.2 µM]
COc1ccccc1CNC(=O)CN(C)Cc1ccc(SC)cc1 | inconclusive: 1.78 µM [inhibitor, partial curve, poor fit] | –
OCCNCc1ccc(-c2ccccc2)cc1 | inconclusive: 2.51 µM [activator, partial curve, poor fit] | –
Cc1ccc(NC(=O)CN2CCN(Cc3ccccc3)CC2)cc1F | inconclusive: 35.5 µM [inhibitor, single point] | –
CSc1ncccc1C(=O)Nc1nnc(C2CC2)s1 | inconclusive: 3.16 µM [activator, single point] | –
COc1ccc(C(=O)Nc2nc3ccccc3c(=O)[nH]2)cc1 | inconclusive: 0.411 µM [activator, partial curve, poor fit] | –
